From paper PMC10377357 (2023)

How the values were obtained:
Experiment in all cases: proximity labelling; TurboID fused to the C-terminus of the bait, CUP1 promoter, strain YDK11-5A, 500 μM copper sulfate and biotin for 1 h at 30 °C; streptavidin purification of biotinylated proteins, LC-MS/MS; enrichment against GFP-TurboID and NLS-GFP-TurboID controls
[1] = biological target: T1, full-length Rps2-TurboID (S. cerevisiae), P25443; conditions: remark: other sources report otherwise
T1 chain: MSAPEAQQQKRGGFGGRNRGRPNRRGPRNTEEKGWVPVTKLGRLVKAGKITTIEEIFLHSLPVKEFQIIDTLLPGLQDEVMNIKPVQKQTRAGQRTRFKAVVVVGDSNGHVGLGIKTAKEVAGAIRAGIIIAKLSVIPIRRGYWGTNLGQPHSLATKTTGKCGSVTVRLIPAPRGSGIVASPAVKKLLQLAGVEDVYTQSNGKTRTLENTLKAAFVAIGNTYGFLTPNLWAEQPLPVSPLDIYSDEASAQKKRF

[2] = biological target: T2, full-length Rps2.R95R97K99>A-TurboID (S. cerevisiae) (UniProt P25443)
T2 sequence: T1 chain with R95A, R97A, K99A

[3] = biological target: T3, Rps2(1–145)-TurboID (S. cerevisiae) (UniProt P25443)
T3 sequence: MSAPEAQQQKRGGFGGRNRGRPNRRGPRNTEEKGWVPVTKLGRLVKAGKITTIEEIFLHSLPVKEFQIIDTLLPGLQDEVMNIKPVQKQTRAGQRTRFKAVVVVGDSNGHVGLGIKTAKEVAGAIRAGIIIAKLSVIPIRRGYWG

[4] = biological target: T4, Rps2(1–145).R95R97K99>A-TurboID (S. cerevisiae) (UniProt P25443)
T4 sequence: T3 sequence with R95A, R97A, K99A

[5] = biological target: T5, full-length Rps2-TurboID (S. cerevisiae) (UniProt P25443)
T5 sequence: T1 chain

binding [1]: no binding
B1: Pse1, P32337 1-1089 (protein)
chain: MSALPEEVNRTLLQIVQAFASPDNQIRSVAEKALSEEWITENNIEYLLTFLAEQAAFSQDTTVAALSAVLFRKLALKAPPSSKLMIMSKNITHIRKEVLAQIRSSLLKGFLSERADSIRHKLSDAIAECVQDDLPAWPELLQALIESLKSGNPNFRESSFRILTTVPYLITAVDINSILPIFQSGFTDASDNVKIAAVTAFVGYFKQLPKSEWSKLGILLPSLLNSLPRFLDDGKDDALASVFESLIELVELAPKLFKDMFDQIIQFTDMVIKNKDLEPPARTTALELLTVFSENAPQMCKSNQNYGQTLVMVTLIMMTEVSIDDDDAAEWIESDDTDDEEEVTYDHARQALDRVALKLGGEYLAAPLFQYLQQMITSTEWRERFAAMMALSSAAEGCADVLIGEIPKILDMVIPLINDPHPRVQYGCCNVLGQISTDFSPFIQRTAHDRILPALISKLTSECTSRVQTHAAAALVNFSEFASKDILEPYLDSLLTNLLVLLQSNKLYVQEQALTTIAFIAEAAKNKFIKYYDTLMPLLLNVLKVNNKDNSVLKGKCMECATLIGFAVGKEKFHEHSQELISILVALQNSDIDEDDALRSYLEQSWSRICRILGDDFVPLLPIVIPPLLITAKATQDVGLIEEEEAANFQQYPDWDVVQVQGKHIAIHTSVLDDKVSAMELLQSYATLLRGQFAVYVKEVMEEIALPSLDFYLHDGVRAAGATLIPILLSCLLAATGTQNEELVLLWHKASSKLIGGLMSEPMPEITQVYHNSLVNGIKVMGDNCLSEDQLAAFTKGVSANLTDTYERMQDRHGDGDEYNENIDEEEDFTDEDLLDEINKSIAAVLKTTNGHYLKNLENIWPMINTFLLDNEPILVIFALVVIGDLIQYGGEQTASMKNAFIPKVTECLISPDARIRQAASYIIGVCAQYAPSTYADVCIPTLDTLVQIVDFPGSKLEENRSSTENASAAIAKILYAYNSNIPNVDTYTANWFKTLPTITDKEAASFNYQFLSQLIENNSPIVCAQSNISAVVDSVIQALNERSLTEREGQTVISSVKKLLGFLPSSDAMAIFNRYPADIMEKVHKWFA

binding [2]: no binding
B2: Pse1 (protein, UniProt P32337 1-1089)
chain: B1 chain

binding [3]: binds | binding [4]: binds | binding [2]: binds | binding [5]: binds
B3: Tsr4 (protein, UniProt P25040 1-408)
chain: MSKIEELPPSDTDDHSYSSKPGDVFLAFVDAPVKETDDILVEDSFIGGEPKWLHPDSEPPAELLKCGACKSADNMKLLLQAFSPLDDEQMSAIQQRLGINNMSYINPQDDRVLYVFLCTECQRKGNSVRCIRGVKKNKNVDSLSEKMASTSLEKDFQINPFDLSNNSDSKCNAFSSNPFGGANANPFGADSINSNISQSKDEGKKKESATVSAKTARKLHDLQKDKEYDGNKCFKSCLLYVEEETFKNKKPAHLQLPKNLKIDKEALDLTGDEDLEKDPIKLDPRTEKLSKFLDDDTFQKFQEVVGYNPLQVLRYDLGGKPLLYAETKVDILSTVPRPGYNPSSQRIFEMQLMPKMIFDLEEVVSVDNGMEWGTILVFTDVENYMPEFDEHGVGYVEECVKVQWESRT

Substitutions are numbered along the chain they refer to. These are yes or no findings as the source states them, for the method shown. In cells and extracts the contact can be indirect. A yes stands for co-enrichment or nearness to the bait. Other partners may have been found. For part of these data: No binding means not detected with the bait. Each block holds one binder with its values, some of them ahead of it.
